PubChem BioAssay AID1508597 – Cure First, 2020
Shown is a random part of the about 2,100 reagents, under one of the conditions tested. 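Calls flag viability under 80% in either arm, not effects specific to rucaparib; the reference for percent is not stated.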 A number with no mark means an inactive call. Not given: the 100% reference.

Screen: 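Knock-downs altering ovarian cancer cell survival with or without PARP inhibitor rucaparib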 (primary screen)
System: human ovarian carcinoma lines grown from tumours: OCI-P5x (papillary serous) and OCI-C5x (clear cell)
Reagents: siRNA pool against human genes, 1.25 pmol siRNA per well
Duration: 72 h or 96 h, depending on the cell culture
Conditions: rucaparib 20 µM (about IC30) or vehicle, present until read-out
Rucaparib or vehicle: Vehicle
Cell line: OCI-P5x (serous)
Read-out: 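Luminescent ATP-based viability assay read 72 or 96 h after transfection, depending on culture, given as normalised percent viability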
Direction: viability, normalised: higher = more viable cells remaining
Rule for the call: 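Active when normalised viability falls below 80 percent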
Meaning of the calls: active = viability under 80%; inactive = viability 80% or more

gene | technical replicate | viability, normalised (%)
CLU (clusterin) | 1 | 67.1 (active)
CLU (clusterin) | 2 | 76.3 (active)
CLU (clusterin) | 3 | 54.8 (active)
MPP3 (MAGUK p55 scaffold protein 3) | 1 | 69.4 (active)
MPP3 (MAGUK p55 scaffold protein 3) | 2 | 54.7 (active)
MPP3 (MAGUK p55 scaffold protein 3) | 3 | 55.2 (active)
PMVK (phosphomevalonate kinase) | 1 | 75.3 (active)
PMVK (phosphomevalonate kinase) | 2 | 71.2 (active)
PMVK (phosphomevalonate kinase) | 3 | 69.6 (active)
STK25 (serine/threonine kinase 25) | 1 | 74.6 (active)
STK25 (serine/threonine kinase 25) | 2 | 67.9 (active)
STK25 (serine/threonine kinase 25) | 3 | 69.1 (active)
CSNK1G3 (casein kinase 1 gamma 3) | 1 | 66.9 (active)
CSNK1G3 (casein kinase 1 gamma 3) | 2 | 71.3 (active)
CSNK1G3 (casein kinase 1 gamma 3) | 3 | 78.4 (active)
MAP3K10 (mitogen-activated protein kinase kinase kinase 10) | 1 | 109
MAP3K10 (mitogen-activated protein kinase kinase kinase 10) | 2 | 91.3
MAP3K10 (mitogen-activated protein kinase kinase kinase 10) | 3 | 104
PDE6G (phosphodiesterase 6G) | 1 | 82.4
PDE6G (phosphodiesterase 6G) | 2 | 56.4 (active)
PDE6G (phosphodiesterase 6G) | 3 | 95.9
HDAC10 (histone deacetylase 10) | 1 | 53.5 (active)
HDAC10 (histone deacetylase 10) | 2 | 72.1 (active)
HDAC10 (histone deacetylase 10) | 3 | 97.7
ACVR1 (activin A receptor type 1) | 1 | 104
ACVR1 (activin A receptor type 1) | 2 | 88.2
ACVR1 (activin A receptor type 1) | 3 | 99.7
SETD6 (SET domain containing 6, protein lysine methyltransferase) | 1 | 48.6 (active)
SETD6 (SET domain containing 6, protein lysine methyltransferase) | 2 | 69.1 (active)
SETD6 (SET domain containing 6, protein lysine methyltransferase) | 3 | 63.4 (active)
SMNDC1 (survival motor neuron domain containing 1) | 1 | 50 (active)
SMNDC1 (survival motor neuron domain containing 1) | 2 | 57.3 (active)
SMNDC1 (survival motor neuron domain containing 1) | 3 | 66.4 (active)
MAD2L1 (mitotic arrest deficient 2 like 1) | 1 | 87.3
MAD2L1 (mitotic arrest deficient 2 like 1) | 2 | 91.9
MAD2L1 (mitotic arrest deficient 2 like 1) | 3 | 86.6
MYBL1 (MYB proto-oncogene like 1) | 1 | 55.4 (active)
MYBL1 (MYB proto-oncogene like 1) | 2 | 56.3 (active)
MYBL1 (MYB proto-oncogene like 1) | 3 | 59.2 (active)
FOXC2 (forkhead box C2) | 1 | 52 (active)
FOXC2 (forkhead box C2) | 2 | 47.7 (active)
FOXC2 (forkhead box C2) | 3 | 74.2 (active)
ASH2L (ASH2 like, histone lysine methyltransferase complex subunit) | 1 | 80
ASH2L (ASH2 like, histone lysine methyltransferase complex subunit) | 2 | 76.6 (active)
ASH2L (ASH2 like, histone lysine methyltransferase complex subunit) | 3 | 66.9 (active)
RIGI (RNA sensor RIG-I) | 1 | 65.6 (active)
RIGI (RNA sensor RIG-I) | 2 | 105
RIGI (RNA sensor RIG-I) | 3 | 75.1 (active)
LIG3 (DNA ligase 3) | 1 | 29.1 (active)
LIG3 (DNA ligase 3) | 2 | 42.3 (active)
LIG3 (DNA ligase 3) | 3 | 37.8 (active)
BCL6 (BCL6 transcription repressor) | 1 | 63.3 (active)
BCL6 (BCL6 transcription repressor) | 2 | 64.7 (active)
BCL6 (BCL6 transcription repressor) | 3 | 72.8 (active)
MED17 (mediator complex subunit 17) | 1 | 42.7 (active)
MED17 (mediator complex subunit 17) | 2 | 60.6 (active)
MED17 (mediator complex subunit 17) | 3 | 50.3 (active)
WHR1 (winged helix repair factor 1) | 1 | 73.6 (active)
WHR1 (winged helix repair factor 1) | 2 | 83.8
WHR1 (winged helix repair factor 1) | 3 | 61.5 (active)
KCTD13 (potassium channel tetramerization domain containing 13) | 1 | 94.8
KCTD13 (potassium channel tetramerization domain containing 13) | 2 | 73.1 (active)
KCTD13 (potassium channel tetramerization domain containing 13) | 3 | 73.7 (active)
ZGPAT (zinc finger CCCH-type and G-patch domain containing) | 1 | 76.8 (active)
ZGPAT (zinc finger CCCH-type and G-patch domain containing) | 2 | 59 (active)
ZGPAT (zinc finger CCCH-type and G-patch domain containing) | 3 | 40.1 (active)
PRG3 (proteoglycan 3, pro eosinophil major basic protein 2) | 1 | 64.1 (active)
PRG3 (proteoglycan 3, pro eosinophil major basic protein 2) | 2 | 89.5
PRG3 (proteoglycan 3, pro eosinophil major basic protein 2) | 3 | 137
TSPYL4 (TSPY like 4) | 1 | 66.4 (active)
TSPYL4 (TSPY like 4) | 2 | 87.7
TSPYL4 (TSPY like 4) | 3 | 73 (active)
TIMM50 (translocase of inner mitochondrial membrane 50) | 1 | 63.4 (active)
TIMM50 (translocase of inner mitochondrial membrane 50) | 2 | 51.4 (active)
TIMM50 (translocase of inner mitochondrial membrane 50) | 3 | 69.6 (active)
